No constants are given. Whether binding was seen depends on the method and setting. Binding seen in cells or lysates may run through a third protein. Binding can be weak; no strength is given. Tags and fused reporters may be left off the sequences shown.
Target: T1, Flag-tagged ZNRF1 (zinc and ring finger 1), full length (mouse) (UniProt Q91V17)
T1 sequence: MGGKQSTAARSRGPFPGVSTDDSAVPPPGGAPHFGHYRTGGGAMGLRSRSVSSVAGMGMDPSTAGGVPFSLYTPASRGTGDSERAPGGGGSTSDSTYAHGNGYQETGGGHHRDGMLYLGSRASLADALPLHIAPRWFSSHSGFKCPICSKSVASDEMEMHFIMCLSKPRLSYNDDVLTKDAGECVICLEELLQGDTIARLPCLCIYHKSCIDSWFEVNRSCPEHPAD
Assay: co-IP; HEK293T cells co-transfected with V5-tagged CAV1 and Flag-tagged ZNRF1 (full length or truncated); lysis in 150 mM NaCl, 20 mM Tris-HCl pH 7.4, 0.5% Triton X-100; immunoprecipitation at 4 °C and immunoblotting

- binding: binds
Substance: CAV1(ΔNC), V5-tagged (mouse) (domain or fragment)

— publication PMC5472178
